The other results are listed elsewhere or left out.
Compound: CC1Cc2ccccc2N1C(=O)C1CCCN(C1)C(=O)CCl (mixture of isomers) [TRIM25 ligand 11 (diastereomer mixture)]
Assay: probe-labelled cysteine peptide fold change vs DMSO (competition) (log2 fold change); higher = less target engagement (more negative = stronger competition)
Conditions: THP-1, incubation time: 4 h
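Also: competitive chemoproteomic profiling in live THP-1 cells with an iodoacetamide desthiobiotin (IA-DTB) probe, comparing probe-labelled peptide intensities in compound-treated cells against DMSO-treated controls.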

Target | probe-labelled cysteine peptide fold change (10 µM) | probe-labelled cysteine peptide fold change (50 µM)
PTPRF_P10586_156_TATMLCAAGGNPDPEISWFK (UniProt P10586) | -0.00322 | 0.138
PTGES3_Q15185_40_LTFSCLGGSDNFK (UniProt Q15185) | 0.0949 | 0.0777
PSMB5_P28074_111_VIEINPYLLGTMAGGAADCSFWER (UniProt P28074) | 0.385 | 0.111
PSMD11_O00231_289_CVAQASK (UniProt O00231) | 0.0832 | -0.051
PSMD13_Q9UNM6_276_KIQLLCLMEMTFTRPANHR (UniProt Q9UNM6) | -0.293 | 0.0022
PSMB1_P20618_82_TVIGCSGFHGDCLTLTK (UniProt P20618) | 0.0679 | 0.0527
PSME4_Q14997_459_TYPALETLTEPHQLTATLSCVIGVAR (UniProt Q14997) | 0.00101 | 0.0556
PUF60_Q9UHX1_129_ALAIMCR (UniProt Q9UHX1) | 0.156 | 0.248
PTPN11_Q06124_259_QGFWEEFETLQQQECK (UniProt Q06124) | -0.0354 | 0.00349
PSMB8_P28062_124_VIEINPYLLGTMSGCAADCQYWER (UniProt P28062) | 0.0314 | -0.195
PTPN7_P35236_62_SLGAVEPICSVNTPR (UniProt P35236) | -0.0974 | -0.0912
PTPRE_P23469_186_VILSQLDGIPCSDYINASYIDGYK (UniProt P23469) | -0.324 | -0.207
PTPN6_P29350_171_VMCEGGR (UniProt P29350) | 0.0886 | 0.0269
PSMA2_P25787_213_ESFEGQMTEDNIEVGICNEAGFR (UniProt P25787) | 0.0692 | -0.0795
PSMB7_Q99436_87_IHFISPNIYCCGAGTAADTDMTTQLISSNLELHSLSTGR (UniProt Q99436) | 0.0709 | 0.0311
PSMD1_Q99460_703_QGALIASALIMIQQTEITCPK (UniProt Q99460) | 8.6e-05 | 0.118
PTPRC_P08575_311_FQLHDCTQVEK (UniProt P08575) | 0.0997 | -0.155
PSMD1_Q99460_898_VLTMPETCR (UniProt Q99460) | -0.126 | 0.0341
PTGR1_Q14914_239_IAICGAISTYNR (UniProt Q14914) | 0.00206 | 0.149
PSIP1_O75475_373_CIEALDELASLQVTMQQAQK (UniProt O75475) | 0.279 | 0.141
PTK2B_Q14289_310_CLPLEEGQAVLQLGIEGAPQALSIK (UniProt Q14289) | -0.0303 | 0.107

Target | probe-labelled cysteine peptide fold change (10 µM) | probe-labelled cysteine peptide fold change (50 µM)
PSMC3IP_Q9P2W1_107_VQSLQQSCR (UniProt Q9P2W1) | 0.0463 | 0.134
PSMD2_Q13200_139_FAADIISVLAMTMSGERECLK (UniProt Q13200) | -0.214 | -0.295
PTPRG_P23470_858_CTADMNITAEHSNHPENK (UniProt P23470) | 0.0217 | -0.141
PTK2B_Q14289_661_CWDYDPSDRPR (UniProt Q14289) | 0.011 | -0.00536
PTK2B_Q14289_61_CTVQTEIR (UniProt Q14289) | 0.115 | 0.123
PTPN1_P18031_32_SGSWAAIYQDIRHEASDFPCR (UniProt P18031) | -0.211 | -0.177
PSMD4_P55036_37_LQAQQDAVNIVCHSK (UniProt P55036) | -0.126 | -0.145
PSMD14_O00487_299_RHLEEHVDVLMTSNIVQCLAAMLDTVVFK (UniProt O00487) | -0.25 | -0.0286
PTGES3_Q15185_58_HLNEIDLFHCIDPNDSK (UniProt Q15185) | -0.0289 | -0.171
PTK2B_Q14289_562_NILVASPECVK (UniProt Q14289) | -0.0586 | -0.123
PSMA7_O14818_91_VECQSHR (UniProt O14818) | 0.116 | 0.145
PSMD1_Q99460_378_NSVCHTATVIANSFMHCGTTSDQFLR (UniProt Q99460) | 0.059 | 0.0532
PSMC6_P62333_228_DHQPCIIFMDEIDAIGGR (UniProt P62333) | 0.0984 | 0.0826
PSMB1_P20618_224_ICIVTK (UniProt P20618) | -0.0748 | 0.0865
PTPN6_P29350_453_QESLPHAGPIIVHCSAGIGR (UniProt P29350) | 0.324 | 0.175
PSME3_P61289_92_RLDECEEAFQGTK (UniProt P61289) | -0.0241 | -0.176
PTK2B_Q14289_352_TSSLAEAENMADLIDGYCR (UniProt Q14289) | -0.0364 | 0.189
PSMD7_P51665_116_YCPNSVLVIIDVKPK (UniProt P51665) | -0.0584 | -0.125
PTPN9_P43378_567_AFSIQTPEQYYFCYK (UniProt P43378) | -0.148 | -0.195
PTPN3_P26045_206_QSEAESCYINIAR (UniProt P26045) | 0.0614 | 0.0775
PSPC1_Q8WXF1_216_CGDGAFLLTTTPR (UniProt Q8WXF1) | -0.0317 | 0.033

Target | probe-labelled cysteine peptide fold change (10 µM) | probe-labelled cysteine peptide fold change (50 µM)
PSMD14_O00487_299_HLEEHVDVLMTSNIVQCLAAMLDTVVFK (UniProt O00487) | -0.427 | -0.257
PTGFRN_Q9P2B2_429_VPGFADDPTELACR (UniProt Q9P2B2) | 0.15 | 0.0482
PSTPIP2_Q9H939_221_ACEAFEAQECER (UniProt Q9H939) | 0.0835 | -0.071
PSMD4_P55036_9_VLESTMVCVDNSEYMR (UniProt P55036) | 0.187 | -0.0795
PSMC1_P62191_399_AICTEAGLMALR (UniProt P62191) | -0.00256 | 0.102
PSMB2_P49721_91_RNLADCLR (UniProt P49721) | -0.136 | -0.0686
PTRH1_Q86Y79_72_DRHCAADLALAPLGDAQLVLLRPR (UniProt Q86Y79) | 0.0314 | 0.0315
PTAR1_Q7Z6K3_314_INLPHLLEEEVEFSTDLIDSYPGHETLWCHR (UniProt Q7Z6K3) | -0.204 | -0.291
PTPRF_P10586_107_VQRDEAIYECTATNSLGEINTSAK (UniProt P10586) | -0.0297 | -0.0226
PSMC3_P17980_396_CTDDFNGAQCK (UniProt P17980) | -0.0195 | 0.013
PSMC6_P62333_193_AVASQLDCNFLK (UniProt P62333) | -0.0838 | -0.21
PSMD12_O00232_74_MCYEAK (UniProt O00232) | 0.037 | 0.0458
PSMD10_O75832_107_GAQVNAVNQNGCTPLHYAASK (UniProt O75832) | 0.0308 | 0.105
PTPN11_Q06124_567_YSLADQTSGDQSPLPPCTPTPPCAEMR (UniProt Q06124) | -0.0215 | -0.086
PSMB3_P49720_19_NCVAIAADRR (UniProt P49720) | 0.0375 | 0.0434
PTK2B_Q14289_395_SHLSESCSIESDIYAEIPDETLR (UniProt Q14289) | 0.156 | -0.413
PSMA2_P25787_213_ESFEGQMTEDNIEVGICNEAGFRR (UniProt P25787) | -0.228 | -0.248
PSMD7_P51665_116_RYCPNSVLVIIDVKPK (UniProt P51665) | 0.0251 | 0.168
PTPN1_P18031_32_HEASDFPCR (UniProt P18031) | 0.156 | -0.0443
PSMD5_Q16401_412_GISSQPFPELHCAALK (UniProt Q16401) | 0.0827 | 0.107
PSMA6_P60900_47_GKDCAVIVTQK (UniProt P60900) | -0.471 | -0.33

Target | probe-labelled cysteine peptide fold change (10 µM) | probe-labelled cysteine peptide fold change (50 µM)
PTPRC_P08575_789_CPDYIIQK (UniProt P08575) | 0.097 | -0.0539
PTPRJ_Q12913_1149_CEEYWPSK (UniProt Q12913) | 0.189 | 0.205
PSMA1_P25786_182_HMSEFMECNLNELVK (UniProt P25786) | 0.29 | -0.174
PSPH_P78330_187_IIMIGDGATDMEACPPADAFIGFGGNVIR (UniProt P78330) | 0.401 | 0.168
PSMD13_Q9UNM6_276_IQLLCLMEMTFTRPANHR (UniProt Q9UNM6) | -0.105 | -0.0056
PTPN23_Q9H3S7_116_YEQACILYNLGALHSMLGAMDK (UniProt Q9H3S7) | 0.125 | -0.0645
PTPRC_P08575_344_FQCGNMIFDNK (UniProt P08575) | -0.0774 | -0.137
PSME4_Q14997_637_CCPEESLK (UniProt Q14997) | 0.064 | 0.017
PTPN1_P18031_226_SGTFCLADTCLLLMDKR (UniProt P18031) | 0.0249 | -0.175
PTPN6_P29350_480_GLDCDIDIQK (UniProt P29350) | -0.0438 | -0.0727
PTGFRN_Q9P2B2_655_CMVTAWSPVR (UniProt Q9P2B2) | 0.0593 | 0.183
PSMB2_P49721_46_ILLLCVGEAGDTVQFAEYIQK (UniProt P49721) | -0.0992 | 0.312
PTPN6_P29350_361_CVPYWPEVGMQR (UniProt P29350) | 0.143 | -0.194
PSMC6_P62333_170_GCLLYGPPGTGK (UniProt P62333) | -0.0424 | 0.00274
PTPRC_P08575_1169_STPLLIHCR (UniProt P08575) | -0.00678 | 0.0204
PTPRE_P23469_630_QQQQTGNHPITVHCSAGAGR (UniProt P23469) | 0.281 | 0.0723
PTK2B_Q14289_44_VCFYSNSFNPGK (UniProt Q14289) | -0.0107 | 0.149
PTCD2_Q8WV60_67_VAVACNLSGTK (UniProt Q8WV60) | 0.051 | -0.0423
PTPA_Q15257_199+200_IDYGTGHEAAFAAFLCCLCK (UniProt Q15257) | -0.139 | -0.0286
PSMG2_Q969U7_103_SKPFCEK (UniProt Q969U7) | -0.0664 | 0.0674
PUM1_Q14671_1007_GQVFALSTHPYGCR (UniProt Q14671) | 0.0773 | -0.000816

Shown with each value named: entries from further up.
PTPRC_P08575_789_CPDYIIQK (UniProt P08575)
  probe-labelled cysteine peptide fold change (10 µM): 0.097; probe-labelled cysteine peptide fold change (50 µM): -0.0539
PSMD13_Q9UNM6_276_IQLLCLMEMTFTRPANHR (UniProt Q9UNM6)
  probe-labelled cysteine peptide fold change (10 µM): -0.105; probe-labelled cysteine peptide fold change (50 µM): -0.0056
PTPRC_P08575_344_FQCGNMIFDNK (UniProt P08575)
  probe-labelled cysteine peptide fold change (10 µM): -0.0774; probe-labelled cysteine peptide fold change (50 µM): -0.137
PTGFRN_Q9P2B2_655_CMVTAWSPVR (UniProt Q9P2B2)
  probe-labelled cysteine peptide fold change (10 µM): 0.0593; probe-labelled cysteine peptide fold change (50 µM): 0.183
